{"source": "the supplement of paper PMC8728848", "binders": {"B1": {"name": "Intelectin-1a (Mus musculus) (protein)", "chain": "AEWSHPQFEKAEENLDTNRWGNSFFSSLPRSCKEIKQEHTKAQDGLYFLRTKNGVIYQTFCDMTTAGGGWTLVASVHENNMRGKCTVGDRWSSQQGNRADYPEGDGNWANYNTFGSAEAATSDDYKNPGYFDIQAENLGIWHVPNKSPLHNWRKSSLLRYRTFTGFLQHLGHNLFGLYKKYPVKYGEGKCWTDNGPALPVVYDFGDARKTASYYSPSGQREFTAGYVQFRVFNNERAASALCAGVRVTGCNTEHHCIGGGGFFPEGNPVQCGDFASFDWDGYGTHNGYSSSRKITEAAVLLFYR"}}, "assay_in_all_cases": "glycan array binding signal (z-score within array); higher = stronger binding", "details_in_all_cases": "glycan notation: IUPAC condensed, linker removed", "key": {"[1]": {"target": "Fuc(a1-2)Gal(b1-4)[Fuc(a1-3)]GlcNAc(b1-2)Man(a1-6)[Fuc(a1-2)Gal(b1-4)[Fuc(a1-3)]GlcNAc(b1-2)Man(a1-3)]Man(b1-4)GlcNAc(b1-4)[Fuc(a1-6)]GlcNAc", "method_in_brief": "(§1)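 Glycan array binding is given as a within-array Z-score, which can be read as non-binding when negative. The arrays, 3228 of them, came from the Consortium for Functional Glycomics database and were retained only where the protein sequence was available. Z-scores were averaged across arrays of the same protein sequence at different concentrations or buffers and across linkers.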"}, "[2]": {"target": "Fuc(a1-2)Gal(b1-4)[Fuc(a1-3)]GlcNAc(b1-2)[Fuc(a1-2)Gal(b1-4)[Fuc(a1-3)]GlcNAc(b1-4)]Man(a1-3)[Fuc(a1-2)Gal(b1-4)[Fuc(a1-3)]GlcNAc(b1-2)Man(a1-6)]Man(b1-4)GlcNAc(b1-4)GlcNAc", "method_in_brief": "as §1"}, "[3]": {"target": "Fuc(a1-2)Gal(b1-4)[Fuc(a1-3)]GlcNAc(b1-3)Gal(b1-4)[Fuc(a1-3)]GlcNAc", "method_in_brief": "as §1"}, "[4]": {"target": "Fuc(a1-2)Gal(b1-4)[Fuc(a1-3)]GlcNAc(b1-3)Gal(b1-4)[Fuc(a1-3)]GlcNAc(b1-3)Gal(b1-4)[Fuc(a1-3)]GlcNAc", "method_in_brief": "as §1"}, "[5]": {"target": "Fuc(a1-2)Gal(b1-4)[Fuc(a1-3)]GlcNAc(b1-3)GalNAc", "method_in_brief": "as §1"}, "[6]": {"target": "Fuc(a1-2)Gal(b1-4)[Fuc(a1-3)]GlcNAc(b1-3)[Neu5Ac(a2-6)Gal(b1-4)GlcNAc(b1-6)]Gal(b1-4)Glc", "method_in_brief": "as §1"}, "[7]": {"target": "Fuc(a1-2)Gal6S(b1-3)GlcNAc", "method_in_brief": "as §1"}, "[8]": {"target": "Fuc(a1-2)Gal6S(b1-3)GlcNAc6S", "method_in_brief": "as §1"}, "Fuc(a1-2)Gal6S(b1-4)Glc": {"target": "Fuc(a1-2)Gal6S(b1-4)Glc", "method_in_brief": "as §1"}, "[9]": {"target": "Fuc(a1-2)Gal6S(b1-4)Glc6S", "method_in_brief": "as §1"}, "[10]": {"target": "Fuc(a1-2)Gal6S(b1-4)GlcNAc", "method_in_brief": "as §1"}, "Fuc(a1-2)[Gal(a1-3)]Gal": {"target": "Fuc(a1-2)[Gal(a1-3)]Gal", "method_in_brief": "as §1"}, "[11]": {"target": "Fuc(a1-2)[Gal(a1-3)]Gal(b1-3)GalNAc", "method_in_brief": "as §1"}, "[12]": {"target": "Fuc(a1-2)[Gal(a1-3)]Gal(b1-3)GlcNAc", "method_in_brief": "as §1"}, "[13]": {"target": "Fuc(a1-2)[Gal(a1-3)]Gal(b1-3)GlcNAc(b1-2)Man(a1-3)[Fuc(a1-2)[Gal(a1-3)]Gal(b1-3)GlcNAc(b1-2)Man(a1-6)]Man(b1-4)GlcNAc(b1-4)GlcNAc", "method_in_brief": "as §1"}, "[14]": {"target": "Fuc(a1-2)[Gal(a1-3)]Gal(b1-3)GlcNAc(b1-2)Man(a1-3)[Fuc(a1-2)[Gal(a1-3)]Gal(b1-3)GlcNAc(b1-2)Man(a1-6)]Man(b1-4)GlcNAc(b1-4)[Fuc(a1-6)]GlcNAc", "method_in_brief": "as §1"}, "[15]": {"target": "Fuc(a1-2)[Gal(a1-3)]Gal(b1-3)GlcNAc(b1-3)GalNAc", "method_in_brief": "as §1"}, "[16]": {"target": "Fuc(a1-2)[Gal(a1-3)]Gal(b1-4)Glc", "method_in_brief": "as §1"}, "[17]": {"target": "Fuc(a1-2)[Gal(a1-3)]Gal(b1-4)GlcNAc", "method_in_brief": "as §1"}, "[18]": {"target": "Fuc(a1-2)[Gal(a1-3)]Gal(b1-4)GlcNAc(b1-2)Man(a1-3)[Fuc(a1-2)[Gal(a1-3)]Gal(b1-4)GlcNAc(b1-2)Man(a1-6)]Man(b1-4)GlcNAc(b1-4)GlcNAc", "method_in_brief": "as §1"}, "[19]": {"target": "Fuc(a1-2)[Gal(a1-3)]Gal(b1-4)GlcNAc(b1-2)Man(a1-3)[Fuc(a1-2)[Gal(a1-3)]Gal(b1-4)GlcNAc(b1-2)Man(a1-6)]Man(b1-4)GlcNAc(b1-4)[Fuc(a1-6)]GlcNAc", "method_in_brief": "as §1"}, "[20]": {"target": "Fuc(a1-2)[Gal(a1-3)]Gal(b1-4)GlcNAc(b1-3)GalNAc", "method_in_brief": "as §1"}, "[21]": {"target": "Fuc(a1-2)[Gal(a1-3)]Gal(b1-4)GlcNAc(b1-6)GalNAc", "method_in_brief": "as §1"}, "[22]": {"target": "Fuc(a1-2)[Gal(a1-3)]Gal(b1-4)[Fuc(a1-3)]Glc", "method_in_brief": "as §1"}, "[23]": {"target": "Fuc(a1-2)[Gal(a1-3)]Gal(b1-4)[Fuc(a1-3)]GlcNAc", "method_in_brief": "as §1"}, "[24]": {"target": "Fuc(a1-2)[Gal(a1-3)]Gal(b1-4)[Fuc(a1-3)]GlcNAc(b1-3)GalNAc", "method_in_brief": "as §1"}, "[25]": {"target": "Fuc(a1-2)[Gal(a1-4)]Gal(b1-4)GlcNAc", "method_in_brief": "as §1"}, "[26]": {"target": "Fuc(a1-2)[GalNAc(a1-3)]Gal", "method_in_brief": "as §1"}, "[27]": {"target": "Fuc(a1-2)[GalNAc(a1-3)]Gal(b1-3)GalNAc(a1-3)[Fuc(a1-2)]Gal(b1-4)GlcNAc", "method_in_brief": "as §1"}, "[28]": {"target": "Fuc(a1-2)[GalNAc(a1-3)]Gal(b1-3)GlcNAc", "method_in_brief": "as §1"}, "[29]": {"target": "Fuc(a1-2)[GalNAc(a1-3)]Gal(b1-3)GlcNAc(b1-2)Man(a1-3)[Fuc(a1-2)[GalNAc(a1-3)]Gal(b1-3)GlcNAc(b1-2)Man(a1-6)]Man(b1-4)GlcNAc(b1-4)GlcNAc", "method_in_brief": "as §1"}, "[30]": {"target": "Fuc(a1-2)[GalNAc(a1-3)]Gal(b1-3)GlcNAc(b1-2)Man(a1-3)[Fuc(a1-2)[GalNAc(a1-3)]Gal(b1-3)GlcNAc(b1-2)Man(a1-6)]Man(b1-4)GlcNAc(b1-4)[Fuc(a1-6)]GlcNAc", "method_in_brief": "as §1"}, "[31]": {"target": "Fuc(a1-2)[GalNAc(a1-3)]Gal(b1-3)GlcNAc(b1-3)GalNAc", "method_in_brief": "as §1"}, "[32]": {"target": "Fuc(a1-2)[GalNAc(a1-3)]Gal(b1-3)GlcNAc(b1-6)GalNAc", "method_in_brief": "as §1"}, "[33]": {"target": "Fuc(a1-2)[GalNAc(a1-3)]Gal(b1-4)Glc", "method_in_brief": "as §1"}, "[34]": {"target": "Fuc(a1-2)[GalNAc(a1-3)]Gal(b1-4)GlcNAc", "method_in_brief": "as §1"}, "[35]": {"target": "Fuc(a1-2)[GalNAc(a1-3)]Gal(b1-4)GlcNAc(b1-2)Man(a1-3)[Fuc(a1-2)[GalNAc(a1-3)]Gal(b1-4)GlcNAc(b1-2)Man(a1-6)]Man(b1-4)GlcNAc(b1-4)GlcNAc", "method_in_brief": "as §1"}, "[36]": {"target": "Fuc(a1-2)[GalNAc(a1-3)]Gal(b1-4)GlcNAc(b1-2)Man(a1-3)[Fuc(a1-2)[GalNAc(a1-3)]Gal(b1-4)GlcNAc(b1-2)Man(a1-6)]Man(b1-4)GlcNAc(b1-4)[Fuc(a1-6)]GlcNAc", "method_in_brief": "as §1"}}, "note": "Some of the results follow."}
{"binder": "B1", "values": [{"measurement": "glycan array binding signal (z-score)", "setting": "[1]", "result": 0.566}, {"measurement": "glycan array binding signal (z-score)", "setting": "[2]", "result": -0.244}, {"measurement": "glycan array binding signal (z-score)", "setting": "[3]", "result": -1.05}, {"measurement": "glycan array binding signal (z-score)", "setting": "[4]", "result": -0.438}, {"measurement": "glycan array binding signal (z-score)", "setting": "[5]", "result": 2.14}, {"measurement": "glycan array binding signal (z-score)", "setting": "[6]", "result": -0.366}, {"measurement": "glycan array binding signal (z-score)", "setting": "[7]", "result": 0.386}, {"measurement": "glycan array binding signal (z-score)", "setting": "[8]", "result": 0.764}, {"measurement": "glycan array binding signal (z-score)", "setting": "Fuc(a1-2)Gal6S(b1-4)Glc", "result": 1.88}, {"measurement": "glycan array binding signal (z-score)", "setting": "[9]", "result": 0.863}, {"measurement": "glycan array binding signal (z-score)", "setting": "[10]", "result": 0.39}, {"measurement": "glycan array binding signal (z-score)", "setting": "Fuc(a1-2)[Gal(a1-3)]Gal", "result": 0.796}, {"measurement": "glycan array binding signal (z-score)", "setting": "[11]", "result": -0.257}, {"measurement": "glycan array binding signal (z-score)", "setting": "[12]", "result": 2.13}, {"measurement": "glycan array binding signal (z-score)", "setting": "[13]", "result": 0.954}, {"measurement": "glycan array binding signal (z-score)", "setting": "[14]", "result": 3.73}, {"measurement": "glycan array binding signal (z-score)", "setting": "[15]", "result": -0.672}, {"measurement": "glycan array binding signal (z-score)", "setting": "[16]", "result": 0.504}, {"measurement": "glycan array binding signal (z-score)", "setting": "[17]", "result": -0.525}, {"measurement": "glycan array binding signal (z-score)", "setting": "[18]", "result": -0.423}, {"measurement": "glycan array binding signal (z-score)", "setting": "[19]", "result": 0.287}, {"measurement": "glycan array binding signal (z-score)", "setting": "[20]", "result": -0.333}, {"measurement": "glycan array binding signal (z-score)", "setting": "[21]", "result": 0.399}, {"measurement": "glycan array binding signal (z-score)", "setting": "[22]", "result": -0.817}, {"measurement": "glycan array binding signal (z-score)", "setting": "[23]", "result": 0.157}, {"measurement": "glycan array binding signal (z-score)", "setting": "[24]", "result": -1.73}, {"measurement": "glycan array binding signal (z-score)", "setting": "[25]", "result": 0.09}, {"measurement": "glycan array binding signal (z-score)", "setting": "[26]", "result": 0.968}, {"measurement": "glycan array binding signal (z-score)", "setting": "[27]", "result": 0.218}, {"measurement": "glycan array binding signal (z-score)", "setting": "[28]", "result": 0.794}, {"measurement": "glycan array binding signal (z-score)", "setting": "[29]", "result": 0.792}, {"measurement": "glycan array binding signal (z-score)", "setting": "[30]", "result": -0.14}, {"measurement": "glycan array binding signal (z-score)", "setting": "[31]", "result": 0.13}, {"measurement": "glycan array binding signal (z-score)", "setting": "[32]", "result": 1.27}, {"measurement": "glycan array binding signal (z-score)", "setting": "[33]", "result": -1.38}, {"measurement": "glycan array binding signal (z-score)", "setting": "[34]", "result": -0.103}, {"measurement": "glycan array binding signal (z-score)", "setting": "[35]", "result": -0.564}, {"measurement": "glycan array binding signal (z-score)", "setting": "[36]", "result": -0.075}]}
